Test results taken from article PMC5011342, “A high throughput drug screening assay to identify compounds that promote oligodendrocyte differentiation using acutely dissociated and purified oligodendrocyte precursor cells” (BMC Research Notes, 2016).

System: expanded OPCs
Procedure: Having established a consistent assay for measuring OL differentiation in vitro, the next step was to utilize this assay to assess the ability of a wide array of compounds to promote OL differentiation. Prior to library screening, we first established the maximum non-toxic dose of each compound in the library. […] Therefore, we added each compound in the NIH clinical collection (NCC) library to OPCs at 10, 1, and 0.1 µM concentrations. Three days later, we assessed viability of the treated cells by measuring AlamarBlue fluorescence, a measure of cell viability (see “Methods” section). […] Appropriately, we established three sets of screening concentrations for library compounds: non-toxic compounds were tested at 10 and 2 µM, slightly toxic compounds (only toxic at 10 µM) were tested at 2 and 0.4 µM, and very toxic compounds were tested at 0.4 and 0.08 µM.
OPCs were expanded in vitro by seeding into PDL-coated tissue culture flasks at 1000–2000 cells/cm^2 in differentiation media supplemented with 10 ng/ml PDGF-AA. Proliferating OPCs were fed every 2–3 days and supplemented with 2–3× concentration of PDGF as needed to prevent OPC differentiation. After 6–7 days of proliferation, OPCs were harvested by trypsinization, plated into PDL-coated 96-well Falcon plates and centrifuged at 200×g to facilitate cell attachment, survival, and even distribution of cells. Expanded OPCs were seeded in differentiation media at 10,000 cells/well and incubated for 2 h at 37 °C, 10 % CO2 prior to addition of compounds. The NCC library was diluted and added to cells at 10, 1, and 0.1 µM; each concentration was tested in quadruplicate. As a positive control for the induction of toxicity, 5 ng/ml tunicamycin was added to 8 wells in each plate. Three days later, a 1:10 dilution of alamarBlue® (AB) was added to each well and cells were incubated 4 h at 37 °C, 10 % CO2. AB fluorescence was measured using a PerkinElmer Victor II fluorescence microplate reader (PerkinElmer, Waltham, MA) with 560 nm excitation/590 nm emission filters. […]

Cc1c(C(=O)NN2CCCCC2)nn(-c2ccc(Cl)cc2Cl)c1-c1ccc(I)cc1 [AM 251]
0.1 µM (% DMSO): 72.9 % DMSO | 1 µM (% DMSO): 108.4 % DMSO | 10 µM (% DMSO): 13.5 % DMSO
